Test results from article PMC9370705, “Conformational Dynamics of Human ALKBH2 Dioxygenase in the Course of DNA Repair as Revealed by Stopped-Flow Fluorescence Spectroscopy”.
Construct, isoform or probe ends are uncertain for at least one entry. At least one verdict was read from the data and is not stated in words by the source. Where a protein sequence is shown, tags need not be part of it.

Target: T1, ALKBH2 (Homo sapiens) (UniProt Q6NS38)
T1 sequence (looked up, limits assumed): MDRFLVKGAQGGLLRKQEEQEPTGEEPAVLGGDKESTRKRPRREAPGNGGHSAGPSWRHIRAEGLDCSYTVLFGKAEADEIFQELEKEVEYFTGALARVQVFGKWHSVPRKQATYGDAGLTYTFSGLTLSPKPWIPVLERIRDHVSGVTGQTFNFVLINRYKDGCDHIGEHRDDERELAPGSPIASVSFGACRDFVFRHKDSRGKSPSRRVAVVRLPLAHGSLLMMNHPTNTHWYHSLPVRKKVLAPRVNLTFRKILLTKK
Assay: Trp fluorescence titration
Details: range over all lesions and forms, 50 mM HEPES-KOH pH 7.5, 50 mM KCl, 10 mM MgCl2, 25 °C (titration, 1 uM enzyme per legend), 2 mM EDTA for apo, recombinant protein

Measured: binding result

ACAGGATCCGGCATA (double strand) [m3C]
binds: 40 uM Fe(II), 1.5-fold higher affinity than apo, N3-methylcytosine at position 9 of strand 1 | 100 uM Co(II), 1 mM 2OG, N3-methylcytosine at position 9 of strand 1 | apo, 2 mM EDTA, N3-methylcytosine at position 9 of strand 1

ACAGGATCCGGCATA (double strand) [m1A]
binds: 40 uM Fe(II), 1.5-fold higher affinity than apo, N1-methyladenine at position 6 of strand 1 | 100 uM Co(II), 1 mM 2OG, N1-methyladenine at position 6 of strand 1 | apo, 2 mM EDTA, single values in Figure 3, N1-methyladenine at position 6 of strand 1

ACAGGATCCGGCATA (double strand) [εA]
binds: 40 uM Fe(II), affinity as apo, 1,N6-ethenoadenine at position 6 of strand 1 | 100 uM Co(II), 1 mM 2OG, 2-fold lower Kd than apo, 1,N6-ethenoadenine at position 6 of strand 1 | apo, 2 mM EDTA, 1,N6-ethenoadenine at position 6 of strand 1
